PubChem BioAssay AID1508588 | Peter MacCallum Cancer Centre – 2020
Test: 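Knock-downs boosting vemurafenib effects on melanoma cell growth or lactate release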 (primary screen). Cell system: human WM266.4 melanoma cells (BRAF V600 mutant). Reagents: siRNA pool against human genes, 40 nM. Time to read-out: 96 h from transfection to read-out. Conditions: vemurafenib 300 nM (about IC25), added 48 h after transfection, for 48 h; comparison arm got DMSO vehicle only. Read-out: 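Cell gain (DAPI nuclei at end minus before drug, mean of two replicates) and medium lactate by absorbance per cell, both as ratio to non-targeting siRNA, also grouped into fold-change classes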. Reading the numbers: cell gain with vemurafenib: higher = more cell gain than with non-targeting siRNA; lactate per cell with vemurafenib: higher = more lactate made per cell. Active means: 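Enhancement is called by pairing each knock-down's vehicle-arm and drug-arm fold-change classes for viability or glycolysis; which class combinations qualify is not given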. Calls: active = enhances vemurafenib effect; inactive = no enhancement seen.
Shown is an unselected part of about 18,000 reagents tested. 790 of them (4.4%) were called active. 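Calls rest on a combination of fold-change classes in drug and vehicle arms, not all shown here.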 A number with no mark means an inactive call. Reagent sequences are not shown.

Gene | cell gain with vemurafenib | lactate per cell with vemurafenib
SLC25A1 | 0.56 | 1.62
SPTBN5 | 0.66 | 1.45
PPM1M | 0.89 | 0.67
GEMIN8 | 0.69 | 0.76
BRSK2 | 0.7 | 0.94
CHI3L1 | 0.8 (active) | 0.34
HGFAC | 0.53 | 0.56
COX17 | 0.68 | 1.41
ANKHD1 | 0.24 | 1.2
ZCWPW2 | 0.68 | 0.6
RGS22 | 0.73 | 0.33
VEGFB | 0.06 | 0.91
NACA | 0.19 | 1.96
OPN1MW | 0.85 | 0.62
ABRA | 0.8 | 0.58
METTL8 | 0.47 | 0.6
PRMT7 | 0.43 | 0.78
LIME1 | 0.95 | 1.09
PRR23E | 0.93 | 0.74
PCOTH | 1.02 | 0.76
FGFBP2 | 0.6 | 1.37
AAK1 | 0.15 (active) | 0.54
RPS28 | -0.03 | 1.48
IRAG2 | 0.92 | 0.6
PATE2 | 0.5 | 0.94
INF2 | 0.64 | 0.63
TRIP12 | 1 | 0.71
SLC25A31 | 1 | 0.72
MAGEB4 | 0.71 (active) | 0.1
PTH | 0.77 (active) | 0.44
NQO2 | 0.62 | 0.57
AP2B1 | 0.32 | 0.94
TOMM20 | 0.36 | 0.5
WDR45 | 0.66 | 0.99
